PubChem BioAssay AID686937 – Drosophila RNAi Screening Center, 2013

- Aim: 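Genes in the fly needed for secretion of protein constitutively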 (primary screen)
- Cell system: Drosophila S2 cells expressing secreted horseradish peroxidase
- Reagent: long dsRNA against Drosophila genes
- Duration: about 5.5 days (5 days dsRNA, then 12 h reporter induction)
- Challenge: reporter expression induced after 5 days of dsRNA, read 12 h later; inducer not stated
- Read-out: 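After 5 days of dsRNA and 12 h of reporter induction, medium peroxidase read by chemiluminescence and scored as per-plate z-score; higher values mean more reporter released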
- Direction: z-score: higher = more reporter secreted into medium
In all, the deposit lists about 23,000 reagents; shown is a random part of those that have a named target and a result. 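Reduced-secretion tags in replicate 1 do not always agree with the z-scores; no criterion for assigning the tags was given.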 The numbers tell different reagents against one gene apart. Not given: the amount of reagent.

target | reagent no. | z-score, replicate 1 | z-score, replicate 2 | phenotype, replicate 1
emb (GeneID 34167) | 1 | -0.5 | -0.56 | –
CG13204 (GeneID 36227) | 1 | 0.36 | 0.32 | –
Rnmt (GeneID 34877) | 1 | -0.11 | -0.06 | –
Dark (GeneID 36914) | 1 | 0.06 | 0.21 | –
Gk2 (GeneID 38221) | 1 | 0.19 | 0.26 | –
Snx3 (GeneID 41551) | 1 | 0.23 | 0.11 | –
CG16972 (GeneID 34715) | 1 | 0.33 | 0.41 | –
Gs1l (GeneID 33653) | 1 | 0.42 | 0.32 | –
Hey (GeneID 35764) | 1 | -1.56 | -1.25 | reduced secretion
Mal-A8 (GeneID 35830) | 1 | 0.29 | 0.36 | –
CG10283 (GeneID 35102) | 1 | 0.39 | 0.32 | –
mei-S332 (GeneID 37523) | 1 | 0.13 | 0.29 | –
Men-b (GeneID 43936) | 1 | 0.23 | 0.51 | –
CG13198 (GeneID 36245) | 1 | 0.38 | 0.15 | –
CG32391 (GeneID 318007) | 1 | 0.52 | -0.09 | –
ppk31 (GeneID 318575) | 1 | 0.42 | -0.26 | –
Opbp (GeneID 246618) | 1 | -0.04 | 0 | –
Mlc1 (GeneID 43323) | 1 | 0.5 | 0.56 | –
bsd (GeneID 36302) | 1 | -0.4 | -0.06 | –
Rpt3 (GeneID 32047) | 1 | -4.61 | -3.98 | reduced secretion
Naa30B (GeneID 317976) | 1 | 0.17 | 0.32 | –
CG12546 (GeneID 40483) | 1 | 0.21 | 0.18 | –
Slc25A46a (GeneID 32564) | 1 | 0.34 | 0.32 | –
gce (GeneID 32457) | 1 | 0.57 | 0.75 | –
gce (GeneID 32457) | 2 | -0.41 | -0.87 | –
CG12464 (GeneID 36516) | 1 | 0.27 | 0.26 | –
b6 (GeneID 31124) | 1 | 0.43 | 0.29 | –
JYalpha (GeneID 5740846) | 1 | 0.26 | 0.35 | –
CG14355 (GeneID 41723) | 1 | 0.33 | 0.32 | –
GluClalpha (GeneID 42350) | 1 | 0.23 | 0.41 | –
Slbp (GeneID 43448) | 1 | -0.12 | 0.05 | –
Inx6 (GeneID 31645) | 1 | 0.45 | 0.46 | –
miple2 (GeneID 44787) | 1 | 0.3 | 0.34 | –

A stretch taken from the entries so far, for reference:
target | reagent no. | z-score, replicate 1 | z-score, replicate 2 | phenotype, replicate 1
Snx3 (GeneID 41551) | 1 | 0.23 | 0.11 | –
CG16972 (GeneID 34715) | 1 | 0.33 | 0.41 | –
